In PMC6544628, “Plasmodium pseudo-Tyrosine Kinase-like binds PP1 and SERA5 and is exported to host erythrocytes” (Scientific Reports, 2019) one finds binding data, which are given here for one substance.

Protein sequences, listed by entry. Tags and fused reporters are not part of them. Residues count along the entry.
UniProt Q64339, residues 1-155: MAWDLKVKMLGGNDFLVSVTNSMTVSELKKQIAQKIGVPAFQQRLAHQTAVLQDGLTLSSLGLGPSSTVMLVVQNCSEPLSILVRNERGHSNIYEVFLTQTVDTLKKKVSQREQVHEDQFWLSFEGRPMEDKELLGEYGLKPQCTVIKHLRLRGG

Results are given in words; binding and its absence hold for the method and conditions named. In cells and extracts the contact can be indirect. Here binding means that the protein was enriched with, or labelled near, the bait; the list need not be complete. Where a sequence is shown, tags or fusion partners need not be part of it.

The assay deals with T1, PbpTKL-AID-HA (P. berghei).
T1 sequence: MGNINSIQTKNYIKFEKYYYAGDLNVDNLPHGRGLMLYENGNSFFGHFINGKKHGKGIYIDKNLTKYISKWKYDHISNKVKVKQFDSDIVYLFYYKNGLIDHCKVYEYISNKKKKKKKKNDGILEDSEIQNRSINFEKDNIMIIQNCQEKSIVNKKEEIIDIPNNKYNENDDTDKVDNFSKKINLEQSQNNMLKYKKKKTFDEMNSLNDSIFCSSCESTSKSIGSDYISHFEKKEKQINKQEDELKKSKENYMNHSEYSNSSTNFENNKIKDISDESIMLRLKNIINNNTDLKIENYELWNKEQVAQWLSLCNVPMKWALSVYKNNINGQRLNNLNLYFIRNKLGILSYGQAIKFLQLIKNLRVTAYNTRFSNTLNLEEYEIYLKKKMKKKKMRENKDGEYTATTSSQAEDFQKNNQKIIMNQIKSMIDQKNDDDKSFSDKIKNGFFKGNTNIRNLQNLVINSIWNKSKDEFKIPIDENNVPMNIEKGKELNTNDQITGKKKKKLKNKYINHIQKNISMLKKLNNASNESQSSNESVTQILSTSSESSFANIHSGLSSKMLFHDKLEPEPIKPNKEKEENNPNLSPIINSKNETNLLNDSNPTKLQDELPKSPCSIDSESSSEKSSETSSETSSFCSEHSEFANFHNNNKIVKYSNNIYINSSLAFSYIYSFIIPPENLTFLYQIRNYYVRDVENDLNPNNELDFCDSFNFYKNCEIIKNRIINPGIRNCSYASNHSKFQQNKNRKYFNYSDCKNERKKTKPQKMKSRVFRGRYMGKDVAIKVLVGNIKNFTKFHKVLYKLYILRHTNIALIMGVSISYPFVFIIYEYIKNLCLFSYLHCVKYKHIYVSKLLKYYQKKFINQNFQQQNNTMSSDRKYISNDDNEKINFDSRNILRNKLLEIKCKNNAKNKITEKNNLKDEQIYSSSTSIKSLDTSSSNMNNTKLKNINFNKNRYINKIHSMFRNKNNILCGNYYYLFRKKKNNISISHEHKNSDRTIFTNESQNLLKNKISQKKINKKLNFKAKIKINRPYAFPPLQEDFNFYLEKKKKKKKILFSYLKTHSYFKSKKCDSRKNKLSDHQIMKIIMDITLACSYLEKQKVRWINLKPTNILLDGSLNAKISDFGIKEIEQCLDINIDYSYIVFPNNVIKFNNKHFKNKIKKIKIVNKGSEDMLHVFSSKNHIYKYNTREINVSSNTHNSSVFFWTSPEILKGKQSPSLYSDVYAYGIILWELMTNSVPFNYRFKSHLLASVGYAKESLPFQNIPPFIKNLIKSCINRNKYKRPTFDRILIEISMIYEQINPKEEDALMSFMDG
The assay can be described thus: affinity purification with mass spectrometry; anti-HA agarose immunoprecipitation from ghost lysates of trophozoite-infected mouse erythrocytes (PbpTKL-AID-HA line) against total lysates of the wild-type pG230 line; NanoLC-MS/MS, three biological replicates.

On to ISG15 (from UniProt Q64339 1-155), for which the binding result is given as “binds”.
